No constants are given. Whether binding was seen depends on the method and setting. In cells and extracts the contact can be indirect. A yes stands for co-enrichment or nearness to the bait. Other partners may have been found.
Substrate: …OOF 2 fused to GFP (SHP2-GFP) (Arabidopsis) (UniProt P29385)
Assay: affinity purification with mass spectrometry; GFP-trap magnetic beads (ChromoTek) on total protein from 1 g inflorescence of pSHP2:SHP2-GFP plants, with Col-0 wild type as control; lysis buffer 50 mM Tris/HCl pH 7.5, 150 mM NaCl, 10 mM MgCl2, 10% glycerol, 1 mM EDTA, 2 mM DTT, 1% Triton X-100, NP40; LC-MS/MS (DIA); three biological replicates

Binder | binding
Peptidyl-prolyl cis–trans isomerase FKBP53 (PPIase FKBP53) (protein, UniProt Q93ZG9 1-477) MGFWGLEVKPGKPQAYNPKNEQGKIHVTQATLGTGLSKEKSVIQCSIGDKAPIALCSLLPNKIECCPLNLEFDDDDEPVEFTVTGDRSIHLSGFLEYYQDDEDDYEHDEDDSDGIDVGESEEDDSCEYDSEEDEQLDEFEDFLDSNLERYRNAAAPKSGVIIEEIEDEEKPAKDNKAKQTKKKSQASEGENAKKQIVAIEGAHVPVLESEDEDEDGLPIPKGKSSEVENASGEKMVVDNDEQGSNKKRKAKAAEQDDGQESANKSKKKKNQKEKKKGENVLNEEAGQVQTGNVLKKQDISQISSNTKAQDGTANNAMSESSKTPDKSAEKKTKNKKKKKPSDEAAEISGTVEKQTPADSKSSQVRTYPNGLIVEELSMGKPNGKRADPGKTVSVRYIGKLQKNGKIFDSNIGKSPFKFRLGIGSVIKGWDVGVNGMRVGDKRKLTIPPSMGYGVKGAGGQIPPNSWLTFDVELINVQ | binds
MADS-box protein AGL18 (protein, UniProt Q9M2K8 1-256) MGRGRIEIKKIENINSRQVTFSKRRNGLIKKAKELSILCDAEVALIIFSSTGKIYDFSSVCMEQILSRYGYTTASTEHKQQREHQLLICASHGNEAVLRNDDSMKGELERLQLAIERLKGKELEGMSFPDLISLENQLNESLHSVKDQKTQILLNQIERSRIQEKKALEENQILRKQVEMLGRGSGPKVLNERPQDSSPEADPESSSSEEDENDNEEHHSDTSLQLGLSSTGYCTKRKKPKIELVCDNSGSQVASD | binds
Probable ubiquitin-like-specific protease 2B (EC 3.4.22.-) (enzyme, UniProt Q8L7S0 1-931) MKKNFEVFDFKEEDELAESAAGKLLEKFTNPSPCNSPVLQRQRIQSFCNEKRVEEEEMEGPSCAEPATAVESDDHQCEDDSTLVTEAKESRTILTFGLETTDHLEETDAEHVNQGLMLGLKTEDLAKETDIDHDNHGLMFGLNSEDDIEETDVDHRVESFSCQLGGNSFYAETSSYSQRQLNSPFSDSSSSEEQIDMMSAIDESLSDRSALSEASDSEDDEEDWMTEHCFNDEEKIDLSTAVIMTSEYVILKDMHCAASLVIFSCNGIKIKSFLANNEEVPFSCEFGVEDIVSIQYNWYQNVGLIILRIRVLLKDENCHEDMEELKIAVKEHNWPNKQQKINSLHVKYPAVWNTDLEDDVEVSGYNLNQQKRYFPSFDEPFEDVVYPKGDPDAVSICKRDVELLQPETFVNDTIIDFYINYLKNQIQTEEKHRFHFFNSFFFRKLADLDKDPSSIADGKAAFLRVRKWTRKVDMFGKDYIFVPVNYNLHWSLIVICHPGEVANRTDLDLDDSKKVPCILHMDSIKGSHAGLKNLVQTYLCEEWKERHKETSDDISSRFMNLRFVSLELPQQENSFDCGLFLLHYLELFLAEAPLNFSPFKIYNASNFLYLNWFPPAEASLKRTLIQKLIFELLENRSREVSNEQNQSCESPVAVNDDMGIEVLSERCSPLIDCNGDMTQTQDDQGIEMTLLERSSMRHIQAANDSGMVLRDLFDSGSNNTGSLLEQLQQPFEDPSSFYHLSNDSSAREQVDMETGEQFMCLNAGEGNFQCITETTSPRASNSFSSWNLGIPLVQKEDETDLLSETSNSSNDSIGIIEDNPIENTHEEEIDESPPRETVSLKSATVGSNTADHTTENEEPVSTHIELVVPSSQNDRDEEKPLEHDLEIGDKTSEDVGDDCDQKEPMEEEDEKRAAKRPRLSSPTGEAEEMEK | binds
Floral homeotic protein APETALA 3 (protein, UniProt P35632 1-232) MARGKIQIKRIENQTNRQVTYSKRRNGLFKKAHELTVLCDARVSIIMFSSSNKLHEYISPNTTTKEIVDLYQTISDVDVWATQYERMQETKRKLLETNRNLRTQIKQRLGECLDELDIQELRRLEDEMENTFKLVRERKFKSLGNQIETTKKKNKSQQDIQKNLIHELELRAEDPHYGLVDNGGDYDSVLGYQIEGSRAYALRFHQNHHHYYPNHGLHAPSASDIITFHLLE | binds
MADS-box protein AGL15 (protein, UniProt Q38847 1-268) MGRGKIEIKRIENANSRQVTFSKRRSGLLKKARELSVLCDAEVAVIVFSKSGKLFEYSSTGMKQTLSRYGNHQSSSASKAEEDCAEVDILKDQLSKLQEKHLQLQGKGLNPLTFKELQSLEQQLYHALITVRERKERLLTNQLEESRLKEQRAELENETLRRQVQELRSFLPSFTHYVPSYIKCFAIDPKNALINHDSKCSLQNTDSDTTLQLGLPGEAHDRRTNEGERESPSSDSVTTNTSSETAERGDQSSLANSPPEAKRQRFSV | binds

Reference: publication PMC11723901
